At least one structure is not confirmed: it was looked up by name or label, or the drawing left a doubt.
What was measured:
[1] = test system: PHA-induced IL-2 production in PBMCs; test: PHA-induced IL-2 production in PBMCs from healthy male smokers (no IL-2/IL-4 added), ELISA; format: cell-based, human
Procedure: PBMCs were isolated from human blood buffy coats provided by a regional blood center. Random buffy coat cells from male donors were a by-product of blood processed for clinical use and no details (i.e., personal identification and background) were provided except for tobacco use. […] PBMCs were separated using a porous high density polyethylene barrier (HISTOPAQUE from GEHealthcare Bio-Sciences AB (US). After centrifugation of blood samples in each tube (35 minutes at 800×g at room temperature, or RT), PBMCs were collected and washed twice with Hank's buffered saline solution (HBSS). PBMCs were resuspended in RPMI-1640 medium containing 10% fetal calf serum (FCS) and 15 mM glutamine and cells were counted and plated.
(§1) PBMCs (2×10^6) were incubated with or without IL-2 (13 ng/ml) and IL-4 (6.5 ng/ml) for 48 hours in RPMI-1640 medium containing 10% FCS and 2 mM glutamine. […] IL-2 and IL-4 stimulated PBMCs were also plated at a concentration of 10^6 cells/ml in 96-well plates ready for PHA (15 μg/mL, 24 hours) stimulation of cytokine release and detection by ELISA.
Serial dilutions of standards and PBMCs' supernatants were measured by enzyme linked immunosorbent assay to determine IL-2 at baseline and its levels after 17HPC, P4 and MAP treatments. Optical density was measured at 450 nm and corrected with 550 nm. […]
Data are expressed as mean±SD. […]
IL-2 levels were quantified using ELISA. […]

[2] = test system: PHA-induced IL-2 release in IL-2 and IL-4 treated (steroid resistant) PBMCs; test: IL-2/IL-4 induced steroid resistance model in PBMCs: dexamethasone inhibition of PHA-induced IL-2 release; format: cell-based, human; details: FIGS. 7-8; Dexamethasone 10^−10 M
Procedure: J Immunol 2009; 183; 164-171). […] Following PBMCs stimulation with mitogen phytohaemagglutinin (PHA), there is a strong correlation between cytokine secretion levels and steroid resistance as well as steroid sensitivity in vitro. Addition of IL-2, IL-4 and TNF-reduce steroid sensitivity.
as §1
IL-2/4 induced steroid resistance in PBMCs, a well-recognized study model, was used to evaluate potential modifiers of steroid resistance and sensitivity. PBMCs from healthy smokers were collected. Corticosteroid insensitivity or resistance was induced by adding IL-2 and IL-4 in peripheral blood mononuclear cells (PBMCs) from healthy male smokers (n=˜11). […] IL-2 levels were quantified using ELISA.
J Immunol 2009; 183; 164-171).
IL-2 levels were quantified using ELISA.

## CCCCCC(=O)O[C@]1(C(C)=O)CC[C@H]2[C@@H]3CCC4=CC(=O)CC[C@]4(C)[C@H]3CC[C@@]21C [17HPC, 17α-HYDROXYPROGESTERONE CAPROATE]
[1]; 17HPC 10^−5 M
  effect on steroid sensitivity measured by Dexamethasone-IC50: minimal or no effect
[1]; add-on 17HPC 10^−11 M or 10^−10 M
  fraction of the original Dexamethasone dose (10^−6 M) giving similar effect (steroid-sparing): 1/1,000th to 1/100,000th
[2]
  subjects with more than 10% improvement in maximal Dexamethasone inhibition: 9 out 11 subjects
